Test results published in article PMC12724370.
Results are given in words; binding and its absence hold for the method and conditions named. Binding seen in cells or lysates may run through a third protein. Some results given as binding are weak or reduced against the parent protein; the word gives no strength.

Protein sequences, listed by entry. Tags and fused reporters are not part of them.
UniProt Q7Z434: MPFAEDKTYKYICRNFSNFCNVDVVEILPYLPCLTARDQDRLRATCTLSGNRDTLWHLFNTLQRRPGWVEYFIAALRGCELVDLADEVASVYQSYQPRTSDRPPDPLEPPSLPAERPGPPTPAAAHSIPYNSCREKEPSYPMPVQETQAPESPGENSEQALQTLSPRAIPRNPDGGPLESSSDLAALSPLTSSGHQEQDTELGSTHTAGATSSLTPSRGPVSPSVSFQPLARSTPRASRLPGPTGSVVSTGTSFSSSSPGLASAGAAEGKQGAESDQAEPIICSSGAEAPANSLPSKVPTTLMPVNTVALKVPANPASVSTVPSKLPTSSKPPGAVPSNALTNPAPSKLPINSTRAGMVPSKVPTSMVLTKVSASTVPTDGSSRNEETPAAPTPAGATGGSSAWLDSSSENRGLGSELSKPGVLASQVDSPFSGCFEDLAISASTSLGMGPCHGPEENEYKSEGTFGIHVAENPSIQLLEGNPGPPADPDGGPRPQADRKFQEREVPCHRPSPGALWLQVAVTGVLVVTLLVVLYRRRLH
UniProt Q9BUL8: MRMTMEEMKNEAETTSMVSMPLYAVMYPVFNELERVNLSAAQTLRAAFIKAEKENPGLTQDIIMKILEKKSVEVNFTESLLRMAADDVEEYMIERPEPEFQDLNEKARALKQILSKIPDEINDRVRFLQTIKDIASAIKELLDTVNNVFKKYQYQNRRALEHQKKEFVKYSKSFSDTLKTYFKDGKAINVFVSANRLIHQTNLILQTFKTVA

Biological target: VISA, endogenous in HeLa cells (human (endogenous in HeLa)) (UniProt Q7Z434)
Experiment: co-IP; endogenous proteins in HeLa cell lysates; anti-VISA or anti-PDCD10 antibody as IP primary antibody

PDCD10, endogenous in HeLa cells (from UniProt Q9BUL8 1-212)
binding: binds
